From paper PMC7497679, “Structure-based design, synthesis, and evaluation of the biological activity of novel phosphoroorganic small molecule IAP antagonists” (Investigational New Drugs, 2020)

Sequences of proteins named here, by UniProt entry; tags and fusion partners are left off. Residues count along the entry.
UniProt P98170, 252-356 limits assumed: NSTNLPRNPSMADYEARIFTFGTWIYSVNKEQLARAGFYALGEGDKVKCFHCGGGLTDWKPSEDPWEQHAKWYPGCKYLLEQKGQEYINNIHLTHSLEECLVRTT

Molecular target: XIAP BIR3 domain (Homo sapiens, UniProt P98170)
Experiment: Fluorescence polarization inhibition (competition) assay
Assay type: binding
Conditions: XIAP BIR3 50 nM, fluorescent probe 4 2 nM

SMILES | EC50
CN[C@@H](C)C(=O)N[C@H](C(=O)N1CCC[C@H]1C(=O)NC(Cc1ccccc1)P(=O)(O)Oc1ccccc1O)C1CCCCC1 (some centres unmarked) | 520 nM
CN[C@@H](C)C(=O)N[C@H](C(=O)N1CCC[C@H]1C(=O)NC(Cc1ccccc1)P(=O)(O)Oc1ccccc1O)C(C)C (some centres unmarked) | 430 nM

Structures were worked out from names or drawings and are uncertain.
